In the assay the target is T1, FLAG-VAPA (UniProt Q9P0L0).
T1 sequence: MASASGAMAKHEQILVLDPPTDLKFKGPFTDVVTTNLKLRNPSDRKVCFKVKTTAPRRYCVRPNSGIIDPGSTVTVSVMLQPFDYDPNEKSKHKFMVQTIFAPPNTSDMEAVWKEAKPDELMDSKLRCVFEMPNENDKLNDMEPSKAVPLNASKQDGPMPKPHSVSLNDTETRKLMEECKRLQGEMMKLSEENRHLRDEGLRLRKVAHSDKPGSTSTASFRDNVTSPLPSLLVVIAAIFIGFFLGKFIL
As to the kind of experiment: co-IP; HEK293T cells transfected with FLAG-VAPA, treated 1 min with 1 μM thapsigargin or DMSO; anti-FLAG M2 magnetic beads; western blot for endogenous VPS13C. In general terms: Immunoblotting shows a protein as a band on a membrane.

Protein sequences, listed by entry. Tags and fused reporters are not part of them.
UniProt Q709C8: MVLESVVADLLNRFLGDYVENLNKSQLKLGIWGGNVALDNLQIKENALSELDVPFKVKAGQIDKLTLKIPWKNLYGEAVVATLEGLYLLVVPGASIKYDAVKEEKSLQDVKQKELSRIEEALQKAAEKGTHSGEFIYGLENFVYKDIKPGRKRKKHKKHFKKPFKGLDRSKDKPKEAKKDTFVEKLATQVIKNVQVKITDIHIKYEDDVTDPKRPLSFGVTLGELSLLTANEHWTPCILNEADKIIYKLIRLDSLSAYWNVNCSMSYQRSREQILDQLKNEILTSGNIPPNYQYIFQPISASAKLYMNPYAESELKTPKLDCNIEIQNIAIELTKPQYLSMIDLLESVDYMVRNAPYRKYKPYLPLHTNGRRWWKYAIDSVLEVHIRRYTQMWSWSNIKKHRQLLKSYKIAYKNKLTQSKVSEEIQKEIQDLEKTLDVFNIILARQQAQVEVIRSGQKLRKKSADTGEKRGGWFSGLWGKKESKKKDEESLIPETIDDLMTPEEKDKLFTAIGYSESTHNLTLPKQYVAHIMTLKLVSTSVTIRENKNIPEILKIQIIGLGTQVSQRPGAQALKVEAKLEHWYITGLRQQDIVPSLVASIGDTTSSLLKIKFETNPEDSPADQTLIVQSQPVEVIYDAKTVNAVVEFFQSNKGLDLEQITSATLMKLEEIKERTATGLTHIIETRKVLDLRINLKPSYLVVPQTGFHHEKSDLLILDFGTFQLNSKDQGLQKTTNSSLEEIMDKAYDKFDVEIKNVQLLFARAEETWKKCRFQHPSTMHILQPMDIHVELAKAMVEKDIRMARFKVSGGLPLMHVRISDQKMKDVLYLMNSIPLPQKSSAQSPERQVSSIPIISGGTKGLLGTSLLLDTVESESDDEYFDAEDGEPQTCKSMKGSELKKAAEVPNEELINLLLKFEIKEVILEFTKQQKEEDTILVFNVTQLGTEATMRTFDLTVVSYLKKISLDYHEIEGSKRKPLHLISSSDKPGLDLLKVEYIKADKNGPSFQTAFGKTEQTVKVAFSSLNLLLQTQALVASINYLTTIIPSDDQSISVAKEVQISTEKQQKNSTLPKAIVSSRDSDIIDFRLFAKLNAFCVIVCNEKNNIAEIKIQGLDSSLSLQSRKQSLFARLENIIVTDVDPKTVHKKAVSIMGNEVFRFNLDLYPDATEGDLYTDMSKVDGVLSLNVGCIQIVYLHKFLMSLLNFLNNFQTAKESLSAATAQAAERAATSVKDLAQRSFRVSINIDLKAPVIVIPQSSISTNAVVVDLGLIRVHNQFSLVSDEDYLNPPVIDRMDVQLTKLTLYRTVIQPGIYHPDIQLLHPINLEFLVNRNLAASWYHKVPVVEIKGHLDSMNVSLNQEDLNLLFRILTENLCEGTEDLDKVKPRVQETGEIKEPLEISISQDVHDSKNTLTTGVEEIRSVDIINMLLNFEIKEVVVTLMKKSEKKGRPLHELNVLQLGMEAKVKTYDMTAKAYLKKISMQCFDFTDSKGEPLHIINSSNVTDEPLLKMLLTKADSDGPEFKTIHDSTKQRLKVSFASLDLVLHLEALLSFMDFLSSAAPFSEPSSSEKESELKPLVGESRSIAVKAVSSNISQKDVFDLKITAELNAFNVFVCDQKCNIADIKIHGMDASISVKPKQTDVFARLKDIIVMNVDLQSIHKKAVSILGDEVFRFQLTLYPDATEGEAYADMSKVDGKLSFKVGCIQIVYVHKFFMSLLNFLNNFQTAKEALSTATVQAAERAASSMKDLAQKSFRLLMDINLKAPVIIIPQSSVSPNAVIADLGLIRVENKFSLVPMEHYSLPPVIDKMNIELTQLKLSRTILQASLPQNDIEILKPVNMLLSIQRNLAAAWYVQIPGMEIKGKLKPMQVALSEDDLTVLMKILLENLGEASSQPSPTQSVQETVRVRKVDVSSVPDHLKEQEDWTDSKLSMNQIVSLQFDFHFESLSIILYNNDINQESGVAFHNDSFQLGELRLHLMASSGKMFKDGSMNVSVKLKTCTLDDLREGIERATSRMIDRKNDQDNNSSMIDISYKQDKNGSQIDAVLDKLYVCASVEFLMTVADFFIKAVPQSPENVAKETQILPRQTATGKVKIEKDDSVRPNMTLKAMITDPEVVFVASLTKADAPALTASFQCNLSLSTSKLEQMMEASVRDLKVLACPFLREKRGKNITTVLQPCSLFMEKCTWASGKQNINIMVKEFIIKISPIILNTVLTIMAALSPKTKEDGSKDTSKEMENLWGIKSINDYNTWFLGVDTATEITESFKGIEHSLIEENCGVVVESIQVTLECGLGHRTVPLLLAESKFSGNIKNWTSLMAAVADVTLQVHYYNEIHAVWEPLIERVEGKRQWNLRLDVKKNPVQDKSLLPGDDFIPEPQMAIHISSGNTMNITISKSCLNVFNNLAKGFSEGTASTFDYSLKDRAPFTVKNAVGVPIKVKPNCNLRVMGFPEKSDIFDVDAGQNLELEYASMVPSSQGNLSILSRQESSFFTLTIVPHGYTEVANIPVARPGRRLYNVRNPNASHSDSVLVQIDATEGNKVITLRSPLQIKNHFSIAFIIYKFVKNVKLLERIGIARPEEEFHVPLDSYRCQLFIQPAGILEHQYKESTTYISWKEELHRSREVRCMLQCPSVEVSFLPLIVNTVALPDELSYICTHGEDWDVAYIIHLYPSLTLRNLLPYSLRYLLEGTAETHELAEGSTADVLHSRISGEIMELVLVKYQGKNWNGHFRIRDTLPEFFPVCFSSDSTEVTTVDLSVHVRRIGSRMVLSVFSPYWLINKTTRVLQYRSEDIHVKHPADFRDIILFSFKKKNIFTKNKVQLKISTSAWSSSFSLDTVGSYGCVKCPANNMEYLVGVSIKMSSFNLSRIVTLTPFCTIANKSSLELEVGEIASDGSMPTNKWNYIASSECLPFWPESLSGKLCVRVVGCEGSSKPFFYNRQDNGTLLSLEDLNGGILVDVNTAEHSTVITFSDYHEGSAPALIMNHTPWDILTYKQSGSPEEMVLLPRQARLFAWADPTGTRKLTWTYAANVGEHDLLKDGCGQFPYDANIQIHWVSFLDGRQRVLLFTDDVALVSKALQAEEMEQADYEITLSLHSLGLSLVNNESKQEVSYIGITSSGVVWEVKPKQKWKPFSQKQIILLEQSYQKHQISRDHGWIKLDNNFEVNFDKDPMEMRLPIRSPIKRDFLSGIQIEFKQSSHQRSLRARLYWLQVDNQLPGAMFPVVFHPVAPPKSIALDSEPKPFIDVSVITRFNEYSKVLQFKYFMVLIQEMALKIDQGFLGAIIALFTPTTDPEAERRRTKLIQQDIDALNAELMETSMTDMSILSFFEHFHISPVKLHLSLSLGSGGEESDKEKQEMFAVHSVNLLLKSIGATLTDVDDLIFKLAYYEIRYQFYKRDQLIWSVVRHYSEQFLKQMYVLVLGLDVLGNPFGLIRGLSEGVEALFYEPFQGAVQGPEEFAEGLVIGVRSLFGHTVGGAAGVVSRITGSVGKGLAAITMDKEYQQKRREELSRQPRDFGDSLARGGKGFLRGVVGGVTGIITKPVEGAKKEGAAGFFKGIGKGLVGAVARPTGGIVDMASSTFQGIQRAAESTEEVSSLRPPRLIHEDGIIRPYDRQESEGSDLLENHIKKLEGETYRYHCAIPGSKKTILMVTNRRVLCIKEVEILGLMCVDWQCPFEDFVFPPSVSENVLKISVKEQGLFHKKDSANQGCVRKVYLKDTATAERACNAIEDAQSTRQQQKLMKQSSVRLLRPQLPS

These results are taken from article PMC13430412.

Results are given in words; binding and its absence hold for the method and conditions named. In cells and extracts the contact can be indirect. Some results given as binding are weak or reduced against the parent protein; the word gives no strength. Where a sequence is shown, tags or fusion partners need not be part of it.

“endogenous VPS13C (HEK293T cells) (from UniProt Q709C8 1-3753)”: the binding entry is on record as “binds”.
